Experimental data published in paper PMC6588657 (2018).

Sequences of proteins named here, by UniProt entry; tags and fusion partners are left off. A change or cut given only in a name is not applied to a line headed by its entry.
UniProt Q9C0E8: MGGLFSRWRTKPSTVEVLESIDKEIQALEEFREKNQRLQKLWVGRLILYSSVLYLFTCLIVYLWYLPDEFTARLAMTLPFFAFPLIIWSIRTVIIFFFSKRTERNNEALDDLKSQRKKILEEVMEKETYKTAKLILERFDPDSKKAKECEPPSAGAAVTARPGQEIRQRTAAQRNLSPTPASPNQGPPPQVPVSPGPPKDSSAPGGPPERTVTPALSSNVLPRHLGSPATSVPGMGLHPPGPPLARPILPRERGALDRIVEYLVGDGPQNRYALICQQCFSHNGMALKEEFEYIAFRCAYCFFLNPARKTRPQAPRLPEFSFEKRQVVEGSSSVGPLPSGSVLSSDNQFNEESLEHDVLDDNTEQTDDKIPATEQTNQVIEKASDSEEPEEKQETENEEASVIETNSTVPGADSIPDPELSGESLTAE

How the values were obtained:
Experiment in all cases: co-IP; Lnp-Myc co-expressed with Lnp-Flag or Flag-tagged truncations in COS-7 cells; Flag-tagged protein precipitated by anti-Flag agarose from lysates with 1% Triton X-100; blot with anti-Flag and anti-Myc
LnpΔCC1 (human) = LnpΔCC1 (human) (UniProt Q9C0E8)
LnpΔLNPARK (human) = LnpΔLNPARK (human) (UniProt Q9C0E8)
LnpΔTM (human) = LnpΔTM (human) (UniProt Q9C0E8)
LnpΔZnF (human) = LnpΔZnF (human) (UniProt Q9C0E8)

Measured: binding

C-terminal Myc-tagged wild-type human Lnp (from UniProt Q9C0E8 1-428)
binds: all assays above

Results are given in words; binding and its absence hold for the method and conditions named. Binding seen in cells or lysates may run through a third protein. A result given as binding can be weak or reduced; the word gives no strength.
